The target in assay [1] is Flag-c-FOS (UniProt P01100). Put plainly: affinity purification with mass spectrometry; lysate (1× RIPA buffer with protease inhibitor) of RPTEC/TERT1 OAT3 cells expressing 2×Flag-c-FOS or 2×Flag-c-Jun, immunoprecipitated with anti-Flag agarose; SDS gel, silver stain, bands excised, Q Exactive HF-X, MASCOT search.
Assay [2] concerns the target Flag-c-Jun (UniProt P05412). The description is as above.

Chains of the proteins cited; added tags and fusions are not shown.
UniProt P01100: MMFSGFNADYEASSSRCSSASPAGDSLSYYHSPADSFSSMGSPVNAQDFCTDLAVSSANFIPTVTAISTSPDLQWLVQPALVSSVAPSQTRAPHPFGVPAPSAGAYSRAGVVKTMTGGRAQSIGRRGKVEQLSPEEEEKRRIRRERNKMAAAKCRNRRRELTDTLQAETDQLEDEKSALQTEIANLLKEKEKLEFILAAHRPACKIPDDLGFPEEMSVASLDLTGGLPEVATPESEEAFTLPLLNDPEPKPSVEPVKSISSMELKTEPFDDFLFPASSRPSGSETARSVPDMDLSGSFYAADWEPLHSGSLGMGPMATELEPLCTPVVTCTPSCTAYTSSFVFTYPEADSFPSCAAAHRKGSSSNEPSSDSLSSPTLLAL
UniProt P05412: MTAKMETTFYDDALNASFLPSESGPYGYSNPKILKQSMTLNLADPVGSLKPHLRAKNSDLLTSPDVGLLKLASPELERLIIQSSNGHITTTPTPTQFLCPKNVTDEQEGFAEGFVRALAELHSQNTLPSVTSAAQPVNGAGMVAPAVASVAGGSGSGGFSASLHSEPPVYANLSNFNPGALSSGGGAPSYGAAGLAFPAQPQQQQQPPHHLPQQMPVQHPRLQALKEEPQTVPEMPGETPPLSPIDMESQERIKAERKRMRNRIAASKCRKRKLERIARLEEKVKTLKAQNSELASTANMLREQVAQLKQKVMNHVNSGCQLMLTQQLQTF
UniProt Q09472: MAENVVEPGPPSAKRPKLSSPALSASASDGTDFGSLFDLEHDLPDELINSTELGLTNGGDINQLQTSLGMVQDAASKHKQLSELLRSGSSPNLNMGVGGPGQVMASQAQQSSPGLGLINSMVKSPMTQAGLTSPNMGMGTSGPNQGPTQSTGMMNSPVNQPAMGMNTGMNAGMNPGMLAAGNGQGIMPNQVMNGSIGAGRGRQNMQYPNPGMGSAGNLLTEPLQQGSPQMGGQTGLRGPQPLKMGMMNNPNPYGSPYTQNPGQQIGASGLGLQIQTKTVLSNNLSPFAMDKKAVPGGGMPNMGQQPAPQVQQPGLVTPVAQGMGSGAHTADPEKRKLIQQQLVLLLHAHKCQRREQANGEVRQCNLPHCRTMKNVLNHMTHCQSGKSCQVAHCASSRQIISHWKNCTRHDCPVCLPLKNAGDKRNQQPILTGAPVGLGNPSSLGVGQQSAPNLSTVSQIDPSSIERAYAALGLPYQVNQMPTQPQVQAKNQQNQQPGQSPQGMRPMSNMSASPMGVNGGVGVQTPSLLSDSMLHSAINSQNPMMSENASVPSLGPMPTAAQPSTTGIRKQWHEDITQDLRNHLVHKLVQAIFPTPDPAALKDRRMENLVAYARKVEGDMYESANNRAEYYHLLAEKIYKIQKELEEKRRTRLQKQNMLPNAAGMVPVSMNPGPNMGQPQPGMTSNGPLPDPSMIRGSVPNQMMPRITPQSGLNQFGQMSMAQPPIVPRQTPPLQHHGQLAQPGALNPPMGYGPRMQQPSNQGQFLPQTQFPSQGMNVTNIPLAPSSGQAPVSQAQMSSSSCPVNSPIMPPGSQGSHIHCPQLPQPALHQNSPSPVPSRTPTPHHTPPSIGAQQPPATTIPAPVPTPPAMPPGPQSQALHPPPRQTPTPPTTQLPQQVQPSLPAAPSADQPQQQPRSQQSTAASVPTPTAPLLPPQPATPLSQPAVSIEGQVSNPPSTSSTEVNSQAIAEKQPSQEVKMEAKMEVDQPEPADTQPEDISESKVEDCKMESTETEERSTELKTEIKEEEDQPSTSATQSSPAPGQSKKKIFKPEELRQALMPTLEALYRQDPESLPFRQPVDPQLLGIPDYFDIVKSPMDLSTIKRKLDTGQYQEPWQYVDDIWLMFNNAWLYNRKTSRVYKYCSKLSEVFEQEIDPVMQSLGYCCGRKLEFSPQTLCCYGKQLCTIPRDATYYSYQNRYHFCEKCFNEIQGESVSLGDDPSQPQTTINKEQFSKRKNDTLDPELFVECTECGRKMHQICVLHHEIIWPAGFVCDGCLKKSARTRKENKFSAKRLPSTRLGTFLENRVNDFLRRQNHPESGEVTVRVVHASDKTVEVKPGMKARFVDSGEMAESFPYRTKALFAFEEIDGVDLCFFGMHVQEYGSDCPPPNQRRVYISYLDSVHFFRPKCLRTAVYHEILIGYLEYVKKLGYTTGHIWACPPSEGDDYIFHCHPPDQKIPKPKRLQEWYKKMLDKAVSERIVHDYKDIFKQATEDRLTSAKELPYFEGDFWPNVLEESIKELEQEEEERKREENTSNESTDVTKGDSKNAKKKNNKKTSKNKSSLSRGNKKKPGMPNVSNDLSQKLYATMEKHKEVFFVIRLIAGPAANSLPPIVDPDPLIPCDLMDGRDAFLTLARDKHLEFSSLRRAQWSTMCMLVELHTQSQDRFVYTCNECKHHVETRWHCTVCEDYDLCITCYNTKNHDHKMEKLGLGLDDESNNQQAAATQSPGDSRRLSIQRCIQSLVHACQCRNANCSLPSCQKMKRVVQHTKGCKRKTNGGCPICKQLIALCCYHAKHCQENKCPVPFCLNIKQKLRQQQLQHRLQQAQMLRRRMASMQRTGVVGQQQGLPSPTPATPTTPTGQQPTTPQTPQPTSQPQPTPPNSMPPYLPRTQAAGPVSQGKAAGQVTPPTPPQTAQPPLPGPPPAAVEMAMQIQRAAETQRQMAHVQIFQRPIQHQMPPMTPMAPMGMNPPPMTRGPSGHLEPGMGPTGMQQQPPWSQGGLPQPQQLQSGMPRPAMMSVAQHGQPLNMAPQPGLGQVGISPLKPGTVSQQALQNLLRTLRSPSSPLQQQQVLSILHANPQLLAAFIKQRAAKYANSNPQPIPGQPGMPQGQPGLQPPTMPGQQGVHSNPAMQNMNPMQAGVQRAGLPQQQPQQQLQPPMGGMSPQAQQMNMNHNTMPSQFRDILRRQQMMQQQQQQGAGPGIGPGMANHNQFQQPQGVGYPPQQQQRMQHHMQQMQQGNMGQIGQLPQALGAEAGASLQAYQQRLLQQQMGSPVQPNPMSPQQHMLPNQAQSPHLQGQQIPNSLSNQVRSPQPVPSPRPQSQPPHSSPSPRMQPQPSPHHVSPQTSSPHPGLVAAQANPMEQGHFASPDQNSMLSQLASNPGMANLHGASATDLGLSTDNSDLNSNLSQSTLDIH

No constants are given. Whether binding was seen depends on the method and setting. Binding seen in cells or lysates may run through a third protein. A yes stands for co-enrichment or nearness to the bait. Other partners may have been found.

On to “histone acetyltransferase p300 (from UniProt Q09472 1-2414)”, for which the binding entry in assay [1] and in assay [2] was “binds” each time.

For the origin of these results see publication PMC6949151.
